Results taken from article PMC4422123.
These are yes or no findings as the source states them, for the method shown. For some of these results: Binding seen in cells or lysates may run through a third protein. Some results given as binding are weak or reduced against the parent protein; the word gives no strength. Where a sequence is shown, tags or fusion partners need not be part of it.

Legend:
[1] = molecular target: T1, 2HA-UOX, in vitro synthesized (mouse) (UniProt P25688); assay: condition: only with 1 µM recombinant PEX5 during co-synthesis and chase; co-IP; the two proteins co-synthesized and chased 4 h in the presence of 1 µM recombinant PEX5; anti-HA antibody agarose beads, 3 h at 4°C, buffer A
T1 sequence (chain, 35S-methionine labelled): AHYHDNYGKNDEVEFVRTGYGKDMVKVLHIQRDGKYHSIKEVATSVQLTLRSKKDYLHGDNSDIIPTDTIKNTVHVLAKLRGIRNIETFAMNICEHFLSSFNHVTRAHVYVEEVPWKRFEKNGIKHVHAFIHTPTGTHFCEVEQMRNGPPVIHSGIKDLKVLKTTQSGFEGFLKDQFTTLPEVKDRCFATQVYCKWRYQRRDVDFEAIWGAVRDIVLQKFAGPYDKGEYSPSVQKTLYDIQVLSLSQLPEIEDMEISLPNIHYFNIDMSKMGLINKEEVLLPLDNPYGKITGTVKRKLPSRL

[2] = molecular target: T1, 2HA-UOX, in vitro synthesized (mouse); assay: condition: only synthesized individually and mixed before immunoprecipitation; co-IP; the two proteins synthesized individually in reticulocyte lysate and mixed just before immunoprecipitation; anti-HA antibody agarose beads, 3 h at 4°C, buffer A
[3] = molecular target: urate oxidase (UOX), untagged, in vitro synthesized (mouse) (UniProt P25688); assay: condition: only synthesized for just 45 min, without chase; sucrose gradient centrifugation; 35S-labelled protein synthesized for a short time only (30 min ACOX1, 45 min UOX), no chase; 5-30% sucrose in buffer B (50 mM Tris-HCl pH 7.5, 150 mM NaCl, 1 mM EDTA, 1 mM DTT), 39 000 r.p.m., 29 h, 4°C; ovalbumin, BSA and IgGs as standards
[4] = molecular target: T1, 2HA-UOX, in vitro synthesized (mouse); assay: co-IP; untagged (or Flag-tagged) and 2HA-tagged protein co-synthesized in reticulocyte lysate without PEX5 (30 min for ACOX1, 45 min for UOX), chased 4 h with cycloheximide; PEX5 added before the IP to make samples identical; anti-HA antibody agarose beads, 3 h at 4°C, buffer A (50 mM Tris-HCl pH 8.0, 150 mM NaCl, 1 mM EDTA, 10% glycerol, 0.1% Triton X-100); SDS-PAGE/autoradiography

binding [1]: no binding
binding [2]: no binding
binding [3]: no binding
binding [4]: binds
B1: urate oxidase (UOX), untagged, in vitro synthesized (protein, UniProt P25688 1-303)
chain: MAHYHDNYGKNDEVEFVRTGYGKDMVKVLHIQRDGKYHSIKEVATSVQLTLRSKKDYLHGDNSDIIPTDTIKNTVHVLAKLRGIRNIETFAMNICEHFLSSFNHVTRAHVYVEEVPWKRFEKNGIKHVHAFIHTPTGTHFCEVEQMRNGPPVIHSGIKDLKVLKTTQSGFEGFLKDQFTTLPEVKDRCFATQVYCKWRYQRRDVDFEAIWGAVRDIVLQKFAGPYDKGEYSPSVQKTLYDIQVLSLSQLPEIEDMEISLPNIHYFNIDMSKMGLINKEEVLLPLDNPYGKITGTVKRKLPSRL
modifications: 35S-methionine labelled
